The results in this text go back to patent US20180258381A1, “BIO-LAMINA BIOREACTORS AND METHODS OF MAKING AND USING THE SAME” (Oregon State University, priority 2015, published 2018).

The structures appear in SMILES notation.

This data set concerns OB3b expressing sMMO. The experiment in a line: Packed bed reactor with cyclopropane inhibitor. In kind it is cell-based, Methylosinus trichosporium (OB3b). As to the method: A Packed Bed Reactor was used to evaluate the conversion of methane to methanol by cell of OB3b expressing sMMO. […] Cyclopropanol is expected to be produced via oxidation of cyclopropane by MMO in this example.
A continuous flow PBR was constructed using a glass HPLC column with the dimensions 2.5 cm ID and 13 cm packing height. Methane, oxygen, and the inhibitor feed solutions dissolved in media were contained within the two 100 mL syringes. The column was packed with alginate beads with sMMO-expressing OB3b formed in-situ under aseptic conditions Immobilized culture performance was evaluated in the PBR over a range of flow rates to achieve reactor residence times (τ) ranging from 0.2, 0.3, 0.5, and 8.5 hours. Two separate experiments were carried out, one for methane transformation (conversion) without the cyclopropane inhibitor and the other with the inhibitor (FIG. 26). For the methane utilization studies, the influent solution was developed by adding 7 mL methane and 21 mL oxygen to the 100 ml syringes. For the inhibition studies 1 ml of cyclopropane was added. After equilibration for 20 minutes, the gases were ejected from the syringes, and the syringes connected to the column inlet.
An integrated form of the Monod equation was used to analyze the results from the PBR experiment. […]

Turning to `C1CC1` [CP, cyclopropane], the Cyclopropane conversion result is, setting by setting: (after about 4 hours residence time) “about 17%±32%”; (τ of 8 hours) 67±3%.
